Reference: PubChem BioAssay AID504467 (National Center for Advancing Translational Sciences (NCATS), 2011)
In all, about 330,000 compounds went through this assay and about 7,700 (2.3%) were called active. The shares of active, inactive and inconclusive entries below differ from those in the screen. Calls follow the shape of the dose curve; as a rule, active = well fitted inhibition curve with a large enough effect; inconclusive = small, poorly fitted or top-dose-only effect, or effect the other way; inactive = flat fitted curve, though single readings scatter. Potencies beside an inconclusive call are fits to weak or partial responses and may not hold up.

assay: qHTS screen for small molecules that inhibit ELG1-dependent DNA repair in human embryonic kidney (HEK293T) cells expressing luciferase-tagged ELG1; settings: HEK293T ELG1-luciferase reporter, luminescence, 16 h, DNA damage induced by 5-fluorouridine; activity change, negative = inhibition: at 46.1 µM (top of the series); also: nearly all actives have a fitted effect of over 55% in size
How it was run: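 Luminescence from the luciferase reporter, measured 30 min after ONE-Glo reagent at room temperature, was the read-out. Beforehand, 2,000 cells per well were exposed for 16 hr at 37 °C to 5-fluorouridine together with compound or vehicle.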
% is scaled to controls: 0 for no effect and ±100 for the full control effect; potency is read from the fitted curve at half-maximal effect.

SMILES | Potency | activity change, negative = inhibition
CC(=O)c1ccc(OCCCC(=O)NCCc2ccccc2)cc1 | inconclusive: 23.1 µM [activator, single point] | –
CCN1CCN(c2nc(S(=O)(=O)c3ccc(C)cc3)c(Cl)s2)CC1 | inconclusive: 8.2 µM [inhibitor, partial curve, poor fit] | –
COCCNC(=O)C(C)N1c2cccc3cccc(c23)S1(=O)=O (stereo not drawn) | – | inactive: -2.28%
CCn1nnnc1SCC(=O)c1cc(OC)ccc1OC | inconclusive: 10 µM [activator, single point] | –
COC(=O)C1=C(C)N(C(C)c2ccccc2)C(=O)/C1=C\c1ccco1 (stereo not drawn) | inconclusive: 29.1 µM [inhibitor, single point] | –
CC1=CC=CC2=NC(=O)CC(C)(C(=O)O)N12 (stereo not drawn) | – | inactive: -5.36%
O=C1C(Cl)=C(NCCc2ccccc2)C(=O)N1CCc1ccccc1 | inconclusive: 16.4 µM [activator, partial curve] | –
Cc1ccc(CSc2ccc(-c3cccs3)nn2)cc1 | inconclusive: 10.3 µM [activator, partial curve] | –
CN1C2CCC1CC(NC(=O)CSCc1ccc(Cl)cc1Cl)C2 (stereo not drawn) | inconclusive: 25.9 µM [activator, single point] | –
O=C(OCC(=O)c1c[nH]c2ccccc12)c1cc2ccccc2cc1O | inconclusive: 20.6 µM [activator, single point] | –
COCCN1CCc2c(C)nc3c(-c4ccc(OC)c(OC)c4)cnn3c21 | inconclusive: 20.6 µM [inhibitor, single point] | –
CCOC(=O)c1[nH]c2ccc(F)cc2c1NC(=O)c1ccccc1C(=O)O | inconclusive: 20.6 µM [activator, partial curve] | –
Cc1c(-c2ccc(Cl)cc2)[n+](=O)c(-c2ccccc2)cn1[O-] | inconclusive: 14.6 µM [activator, partial curve, poor fit] | –
CN(C)/C=N/c1nc2nccc(-c3ccc(Cl)cc3)n2n1 | inconclusive: 23.1 µM [activator, single point] | –
Cc1csc(NC(=O)c2ccccc2)n1 | inconclusive: 14.1 µM [activator, partial curve, poor fit] | –
O=C(Nc1cccc(S(=O)(=O)NC2=NCCC2)c1)c1ccc(OC(F)F)cc1 | inconclusive: 32.6 µM [inhibitor, partial curve, poor fit] | –
O=S(=O)(NCCc1ccncc1)c1ccc(F)cc1 | – | inactive: -4.96%
CC(C)CC(NC(=O)C(NC(=O)C(Cc1ccc(OCc2ccccc2)cc1)NC(=O)OC(C)(C)C)C(C)C)C(N)=O (stereo not drawn) | – | inactive: 13.9%
CCOc1ccc2ncc(S(=O)(=O)c3ccc(C)cc3)c(N3CCC4(CC3)OCCO4)c2c1 | active: 18.4 µM | –
COc1ccccc1NC(=O)C1CCCN(S(=O)(=O)c2ccccc2)C1 (stereo not drawn) | – | inactive: -7.74%
COc1ccccc1/C=C/C=N/NC(=O)c1ccc(=O)n(C)c1 | inconclusive: 20.6 µM [activator, single point] | –
C/C(N)=C(/C#N)C(=O)COc1ccc(Cl)cc1Cl | inconclusive: 13 µM [activator, partial curve] | –

SMILES | Potency | activity change, negative = inhibition
CN(C)CC(=O)c1c[nH]c2ccccc12 | – | inactive: -3.07%
CCCn1cnc2cc(NCc3ccccn3)ccc21 | inconclusive: 2.06 µM [activator, full curve, poor fit] | –
CCCn1c(N)c(C(=O)COc2ccc(Br)cc2F)c(=O)n(C)c1=O | inconclusive: 29.1 µM [inhibitor, single point] | –
S=C(NCc1ccccn1)Nc1ccccc1Cl | inconclusive: 14.6 µM [activator, single point] | –
Brc1cccc(-c2nnc3n2CCC3)c1 | inconclusive: 23.1 µM [inhibitor, partial curve, poor fit] | –
O=C(CN1C(=O)/C(=C2/SC(=S)N(CCS(=O)(=O)O)C2=O)c2ccccc21)Nc1cccc(C(F)(F)F)c1 | – | inactive: -0.423%
CSc1nc(=S)n(Cc2ccccc2)c(C)c1C(C)=O | inconclusive: 29.1 µM [inhibitor, partial curve, poor fit] | –
O=C(COc1ccccc1)Nc1cccc(-c2ccc(N3CCOCC3)nn2)c1 | inconclusive: 1.46 µM [activator, partial curve] | –
Cc1ccc(NC(=O)C2CC2C)c(Cl)c1 (stereo not drawn) | inconclusive: 18.3 µM [activator, partial curve] | –
O=C(C1COc2ccccc2O1)N1CCN(c2ccc(C(F)(F)F)cn2)CC1 (stereo not drawn) | inconclusive: 29.1 µM [inhibitor, single point] | –
Cc1ccc(NC(=O)CCC(=O)N/N=C/c2ccccc2O)cc1 | inconclusive: 2.31 µM [inhibitor, full curve] | –
CC(CC(=O)N1CCN(S(=O)(=O)c2ccc([N+](=O)[O-])cc2)CC1)c1ccccc1 (stereo not drawn) | – | inactive: 7.11%
CCc1ccc(C(=O)NNc2ccc(Cl)cc2)cc1 | inconclusive: 29.1 µM [activator, single point] | –
CCn1nc(C)c(NS(=O)(=O)c2ccccc2)c1C | inconclusive: 29.1 µM [inhibitor, single point] | –
CCOC(=O)[C@H]1[C@H]2COc3ccc(Cl)cc3[C@@H]2N2C(=O)CN(Cc3ccc(OC)cc3)C(=O)[C@@]12C | inconclusive: 29.1 µM [inhibitor, single point] | –
COC(=O)[C@@H](N)Cc1ccc(O)c(O)c1 | – | inactive: 11.1%
O=C(NCc1cccc(Cl)c1)c1ccc2nc[nH]c2c1 | – | inactive: 13.9%
Cc1ccc(S(=O)(=O)N2C[C@@H]3[C@H]4CC[C@H](C4)[C@@H]3[C@@H](C)[C@@H]2c2ccco2)cc1 | inconclusive: 23.1 µM [activator, partial curve, poor fit] | –
Cc1onc(-c2c(F)cccc2Cl)c1C(=O)Nc1nc2ccccc2[nH]1 | inconclusive: 29.1 µM [inhibitor, single point] | –
CCN(CC)C(=O)COc1ccc(-c2nnc(N3CCCCC3)c3ccccc23)cc1 | inconclusive: 25.9 µM [inhibitor, single point] | –
CC(C)[C@H](NC(=O)c1ccc(Cl)cc1)C(=O)OCC(=O)N1CCN(c2ccccc2)CC1 | inconclusive: 41.1 µM [inhibitor, partial curve, poor fit] | –

Copied from the list.
Potency with Cc1ccc(NC(=O)C2CC2C)c(Cl)c1 (stereo not drawn) reads inconclusive: 18.3 µM [activator, partial curve]
Potency with CCn1nc(C)c(NS(=O)(=O)c2ccccc2)c1C reads inconclusive: 29.1 µM [inhibitor, single point]
